Paper PMC5461506, “Strength of Neisseria meningitidis binding to endothelial cells requires highly-ordered CD147/β2-adrenoceptor clusters assembled by alpha-actinin-4” (Nature Communications, 2017)

Amino acid sequences for entries named in this document (tags omitted). A change or cut given only in a name is not applied to a line headed by its entry.
UniProt P35613: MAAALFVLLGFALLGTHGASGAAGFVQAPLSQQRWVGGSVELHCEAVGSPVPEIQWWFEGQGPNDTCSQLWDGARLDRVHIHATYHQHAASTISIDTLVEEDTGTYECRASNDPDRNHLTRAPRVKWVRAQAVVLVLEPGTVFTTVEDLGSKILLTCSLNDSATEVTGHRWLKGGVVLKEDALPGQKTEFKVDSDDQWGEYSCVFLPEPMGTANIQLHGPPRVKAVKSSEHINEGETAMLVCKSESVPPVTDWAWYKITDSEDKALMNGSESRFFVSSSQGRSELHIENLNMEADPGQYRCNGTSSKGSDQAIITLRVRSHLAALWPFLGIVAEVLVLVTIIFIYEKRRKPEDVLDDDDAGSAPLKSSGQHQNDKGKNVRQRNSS
UniProt P12814: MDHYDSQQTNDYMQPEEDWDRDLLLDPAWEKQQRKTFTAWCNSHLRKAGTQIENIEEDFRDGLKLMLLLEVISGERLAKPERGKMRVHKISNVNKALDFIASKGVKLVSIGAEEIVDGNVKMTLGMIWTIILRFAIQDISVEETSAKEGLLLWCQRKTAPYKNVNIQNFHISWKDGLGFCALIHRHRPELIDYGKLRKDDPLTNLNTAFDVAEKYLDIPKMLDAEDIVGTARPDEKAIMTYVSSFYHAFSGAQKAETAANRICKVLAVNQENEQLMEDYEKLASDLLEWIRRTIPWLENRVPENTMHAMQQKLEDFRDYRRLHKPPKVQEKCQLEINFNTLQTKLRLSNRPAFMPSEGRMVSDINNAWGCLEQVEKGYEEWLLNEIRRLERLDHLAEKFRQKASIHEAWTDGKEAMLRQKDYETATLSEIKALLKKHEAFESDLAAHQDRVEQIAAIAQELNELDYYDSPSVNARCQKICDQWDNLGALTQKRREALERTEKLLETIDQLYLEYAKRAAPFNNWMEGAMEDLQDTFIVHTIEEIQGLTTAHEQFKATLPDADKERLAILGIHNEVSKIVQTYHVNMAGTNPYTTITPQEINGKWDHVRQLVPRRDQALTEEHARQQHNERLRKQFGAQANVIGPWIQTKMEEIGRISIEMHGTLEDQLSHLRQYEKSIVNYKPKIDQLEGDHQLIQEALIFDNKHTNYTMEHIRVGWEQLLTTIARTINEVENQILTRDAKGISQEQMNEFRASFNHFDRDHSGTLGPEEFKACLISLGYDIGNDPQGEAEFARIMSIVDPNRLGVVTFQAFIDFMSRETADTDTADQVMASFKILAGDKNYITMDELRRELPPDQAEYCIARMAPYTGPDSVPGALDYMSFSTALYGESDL
UniProt O75369: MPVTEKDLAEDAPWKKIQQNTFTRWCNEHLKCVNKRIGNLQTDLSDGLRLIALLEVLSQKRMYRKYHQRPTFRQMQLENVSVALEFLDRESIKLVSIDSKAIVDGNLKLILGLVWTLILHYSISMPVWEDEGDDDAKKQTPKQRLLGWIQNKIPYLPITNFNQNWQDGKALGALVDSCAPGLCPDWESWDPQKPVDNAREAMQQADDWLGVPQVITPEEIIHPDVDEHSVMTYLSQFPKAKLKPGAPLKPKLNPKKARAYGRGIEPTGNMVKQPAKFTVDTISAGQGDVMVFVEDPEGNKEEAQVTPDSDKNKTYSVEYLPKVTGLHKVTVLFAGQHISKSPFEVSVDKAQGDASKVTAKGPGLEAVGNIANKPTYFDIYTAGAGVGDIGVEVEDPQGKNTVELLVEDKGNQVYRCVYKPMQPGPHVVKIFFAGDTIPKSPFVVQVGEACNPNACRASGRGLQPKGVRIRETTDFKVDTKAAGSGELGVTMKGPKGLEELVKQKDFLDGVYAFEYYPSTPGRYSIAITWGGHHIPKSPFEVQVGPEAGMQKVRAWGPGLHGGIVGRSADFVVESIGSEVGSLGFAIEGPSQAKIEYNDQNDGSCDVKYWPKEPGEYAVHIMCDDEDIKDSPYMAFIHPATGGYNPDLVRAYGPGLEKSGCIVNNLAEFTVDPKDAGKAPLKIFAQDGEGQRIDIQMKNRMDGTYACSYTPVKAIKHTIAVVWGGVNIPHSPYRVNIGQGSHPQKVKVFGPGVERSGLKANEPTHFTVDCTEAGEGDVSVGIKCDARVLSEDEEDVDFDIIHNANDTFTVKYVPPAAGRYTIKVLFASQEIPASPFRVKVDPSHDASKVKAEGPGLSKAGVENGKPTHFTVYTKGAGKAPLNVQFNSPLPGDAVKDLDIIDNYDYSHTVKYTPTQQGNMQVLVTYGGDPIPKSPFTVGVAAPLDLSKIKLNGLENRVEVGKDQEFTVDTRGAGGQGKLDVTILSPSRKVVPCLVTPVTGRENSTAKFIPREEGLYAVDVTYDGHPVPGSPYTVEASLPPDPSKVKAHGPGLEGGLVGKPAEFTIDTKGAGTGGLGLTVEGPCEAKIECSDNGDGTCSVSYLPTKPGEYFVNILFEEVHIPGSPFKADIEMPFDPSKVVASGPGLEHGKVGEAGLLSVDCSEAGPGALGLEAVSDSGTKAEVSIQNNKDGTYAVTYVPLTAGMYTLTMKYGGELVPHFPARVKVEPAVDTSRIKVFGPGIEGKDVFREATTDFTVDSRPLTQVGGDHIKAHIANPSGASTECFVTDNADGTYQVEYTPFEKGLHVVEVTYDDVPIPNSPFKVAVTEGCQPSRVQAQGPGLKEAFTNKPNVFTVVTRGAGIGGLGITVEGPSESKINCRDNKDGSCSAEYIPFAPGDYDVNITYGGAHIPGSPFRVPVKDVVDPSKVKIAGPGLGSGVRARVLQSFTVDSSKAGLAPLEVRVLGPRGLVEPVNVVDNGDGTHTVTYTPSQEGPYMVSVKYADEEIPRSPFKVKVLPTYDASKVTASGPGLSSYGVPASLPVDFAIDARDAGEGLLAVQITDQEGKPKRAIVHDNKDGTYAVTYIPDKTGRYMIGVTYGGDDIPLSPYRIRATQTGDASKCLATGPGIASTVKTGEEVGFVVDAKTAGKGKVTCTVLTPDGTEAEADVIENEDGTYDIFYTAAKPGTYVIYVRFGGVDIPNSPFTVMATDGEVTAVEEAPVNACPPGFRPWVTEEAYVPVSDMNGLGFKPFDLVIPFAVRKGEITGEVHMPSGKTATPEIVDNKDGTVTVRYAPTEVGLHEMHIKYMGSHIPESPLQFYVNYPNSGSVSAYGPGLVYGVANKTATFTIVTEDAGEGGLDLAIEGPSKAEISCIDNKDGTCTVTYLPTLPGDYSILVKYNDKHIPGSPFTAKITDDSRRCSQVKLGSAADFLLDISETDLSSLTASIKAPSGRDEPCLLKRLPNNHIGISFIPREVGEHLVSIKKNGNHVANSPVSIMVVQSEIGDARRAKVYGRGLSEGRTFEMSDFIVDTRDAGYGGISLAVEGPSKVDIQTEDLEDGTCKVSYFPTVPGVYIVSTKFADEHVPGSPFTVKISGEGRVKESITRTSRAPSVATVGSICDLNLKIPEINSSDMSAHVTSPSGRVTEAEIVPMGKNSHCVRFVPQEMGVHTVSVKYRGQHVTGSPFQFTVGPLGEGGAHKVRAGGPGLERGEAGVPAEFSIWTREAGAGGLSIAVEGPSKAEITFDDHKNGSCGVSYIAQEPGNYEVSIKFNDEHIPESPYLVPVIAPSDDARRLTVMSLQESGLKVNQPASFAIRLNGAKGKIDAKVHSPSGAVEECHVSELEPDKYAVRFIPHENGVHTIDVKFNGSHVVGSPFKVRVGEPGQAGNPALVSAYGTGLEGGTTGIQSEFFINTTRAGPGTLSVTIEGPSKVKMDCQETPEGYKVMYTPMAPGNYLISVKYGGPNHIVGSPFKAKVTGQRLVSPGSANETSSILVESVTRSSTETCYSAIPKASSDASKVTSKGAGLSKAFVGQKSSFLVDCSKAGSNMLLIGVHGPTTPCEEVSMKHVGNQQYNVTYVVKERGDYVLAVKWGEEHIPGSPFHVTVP
UniProt P21333: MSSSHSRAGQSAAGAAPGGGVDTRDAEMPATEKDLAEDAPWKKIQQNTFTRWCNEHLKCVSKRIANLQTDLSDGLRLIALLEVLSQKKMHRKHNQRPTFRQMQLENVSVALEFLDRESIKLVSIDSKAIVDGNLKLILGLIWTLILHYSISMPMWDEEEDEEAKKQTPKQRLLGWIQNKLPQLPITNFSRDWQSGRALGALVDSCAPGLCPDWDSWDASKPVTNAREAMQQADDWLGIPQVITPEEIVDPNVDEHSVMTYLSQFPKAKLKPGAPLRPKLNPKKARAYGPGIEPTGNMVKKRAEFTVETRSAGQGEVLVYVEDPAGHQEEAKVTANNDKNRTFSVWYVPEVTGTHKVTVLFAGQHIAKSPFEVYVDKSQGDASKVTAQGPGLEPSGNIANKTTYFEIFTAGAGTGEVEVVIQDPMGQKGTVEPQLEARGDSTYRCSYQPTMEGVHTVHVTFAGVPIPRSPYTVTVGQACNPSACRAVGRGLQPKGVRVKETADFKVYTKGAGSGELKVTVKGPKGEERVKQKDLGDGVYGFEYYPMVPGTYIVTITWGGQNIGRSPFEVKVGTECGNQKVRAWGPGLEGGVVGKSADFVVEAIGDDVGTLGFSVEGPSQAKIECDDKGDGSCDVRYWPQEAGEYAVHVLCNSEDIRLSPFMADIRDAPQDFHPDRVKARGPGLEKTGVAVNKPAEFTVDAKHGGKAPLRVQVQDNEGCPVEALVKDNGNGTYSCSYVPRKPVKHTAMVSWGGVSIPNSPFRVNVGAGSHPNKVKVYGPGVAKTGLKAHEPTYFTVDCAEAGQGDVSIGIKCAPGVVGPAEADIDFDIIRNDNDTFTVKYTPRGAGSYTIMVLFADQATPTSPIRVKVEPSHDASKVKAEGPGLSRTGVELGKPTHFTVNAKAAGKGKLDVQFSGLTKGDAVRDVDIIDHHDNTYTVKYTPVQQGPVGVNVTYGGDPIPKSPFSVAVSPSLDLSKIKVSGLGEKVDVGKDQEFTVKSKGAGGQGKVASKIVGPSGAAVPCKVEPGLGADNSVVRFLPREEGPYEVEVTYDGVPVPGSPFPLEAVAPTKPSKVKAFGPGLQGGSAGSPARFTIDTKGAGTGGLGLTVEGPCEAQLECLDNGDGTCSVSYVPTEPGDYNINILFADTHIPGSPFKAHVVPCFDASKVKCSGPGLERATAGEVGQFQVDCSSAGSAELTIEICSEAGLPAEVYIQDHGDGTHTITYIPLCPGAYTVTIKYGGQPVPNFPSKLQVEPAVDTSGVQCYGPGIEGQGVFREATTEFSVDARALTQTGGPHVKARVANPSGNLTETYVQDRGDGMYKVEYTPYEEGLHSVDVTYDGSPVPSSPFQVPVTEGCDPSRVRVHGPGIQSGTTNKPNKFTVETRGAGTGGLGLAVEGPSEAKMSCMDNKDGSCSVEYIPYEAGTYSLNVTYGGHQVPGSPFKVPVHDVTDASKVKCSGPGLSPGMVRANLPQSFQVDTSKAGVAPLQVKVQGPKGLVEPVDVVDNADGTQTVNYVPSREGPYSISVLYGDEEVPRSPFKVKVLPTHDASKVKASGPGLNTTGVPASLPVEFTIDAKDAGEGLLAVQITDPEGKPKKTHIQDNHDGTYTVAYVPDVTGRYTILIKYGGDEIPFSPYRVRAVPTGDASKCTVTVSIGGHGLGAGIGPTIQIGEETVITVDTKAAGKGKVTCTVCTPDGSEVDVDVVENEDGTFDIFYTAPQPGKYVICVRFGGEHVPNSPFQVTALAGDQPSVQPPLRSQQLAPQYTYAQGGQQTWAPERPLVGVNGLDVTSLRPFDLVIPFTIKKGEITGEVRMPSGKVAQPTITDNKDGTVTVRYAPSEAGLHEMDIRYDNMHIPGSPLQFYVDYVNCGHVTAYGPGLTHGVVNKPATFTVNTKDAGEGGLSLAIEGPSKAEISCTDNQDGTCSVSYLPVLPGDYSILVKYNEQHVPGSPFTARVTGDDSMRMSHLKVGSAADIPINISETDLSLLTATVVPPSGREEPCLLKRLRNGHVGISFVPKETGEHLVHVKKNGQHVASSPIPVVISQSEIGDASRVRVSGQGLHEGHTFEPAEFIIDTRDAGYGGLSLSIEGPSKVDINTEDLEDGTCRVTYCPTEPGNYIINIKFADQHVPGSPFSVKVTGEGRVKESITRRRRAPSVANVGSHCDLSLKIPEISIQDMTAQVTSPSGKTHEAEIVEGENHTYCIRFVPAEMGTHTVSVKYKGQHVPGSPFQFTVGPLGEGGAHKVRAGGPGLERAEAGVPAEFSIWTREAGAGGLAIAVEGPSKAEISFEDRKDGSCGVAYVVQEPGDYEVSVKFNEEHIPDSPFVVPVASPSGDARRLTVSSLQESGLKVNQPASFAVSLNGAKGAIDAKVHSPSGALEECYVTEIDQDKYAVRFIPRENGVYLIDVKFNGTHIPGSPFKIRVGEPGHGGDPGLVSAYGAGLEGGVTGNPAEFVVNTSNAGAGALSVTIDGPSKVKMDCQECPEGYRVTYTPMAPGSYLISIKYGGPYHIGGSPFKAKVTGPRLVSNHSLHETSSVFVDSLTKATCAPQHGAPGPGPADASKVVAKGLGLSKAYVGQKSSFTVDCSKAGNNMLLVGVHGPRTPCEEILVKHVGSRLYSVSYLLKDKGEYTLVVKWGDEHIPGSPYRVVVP

molecular target: CD147 (endogenous, HBMECs) (human (endogenous in HBMEC)) (UniProt P35613); assay: affinity purification with mass spectrometry; CD147 immunoprecipitated from non-infected and infected HBMEC lysates, SDS-PAGE, in-gel trypsin digestion, nano-LC MALDI-TOF/TOF

Row | binding | Substance
1 | binds | Actn1 (endogenous, HBMECs) (from UniProt P12814 1-892)
2 | binds | filamin B (endogenous, HBMECs) (from UniProt O75369 1-2602)
3 | binds | α-actinin-4 (endogenous, HBMECs) (from UniProt O43707 1-911)
4 | binds | filamin A (endogenous, HBMECs) (from UniProt P21333 1-2647)

Results are given in words; binding and its absence hold for the method and conditions named. Binding seen in cells or lysates may run through a third protein. These calls come from enrichment with a bait or labelling near it, and not all partners need be listed.
